Experimental data: PubChem BioAssay AID662 (National Center for Advancing Translational Sciences (NCATS), 2007)
Several values for one entry are separate records, joined by “and”; a condition that tells them apart may be missing. Equal entries are not always repeated. Some of the results follow. Shown are side measurements of this screen, not its main read-out; they come without a call. Most of these compounds were active or inconclusive in the main read-out, so they are no random draw. Potencies come from curve fits of mixed quality, noted in brackets.

Assay: Cell signaling CRE-BLA (Fsk stim)
Conditions: CHO CRE-bla reporter (cAMP response element driving beta-lactamase), forskolin EC10, beta-lactamase ratio; measured here: 460 nm blue channel
Outline: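 The 460nm/530nm emission ratio after CCF4 loading defined %Activity, from which AC50 values were obtained. CRE-bla CHO cells received compound dilution series together with an EC10 level of NKH 477 for 3 hours at 37 degrees Celsius.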

Row | Structure (SMILES) | AC50
1 | O=C(COc1ccc(Cl)cc1Cl)NC(=O)N1CCCCC1 | 25.1 µM [rising, single point]
2 | CCn1cc(C(=O)NCc2ccc3c(c2)OCO3)c(=O)c2cc(F)c(N3CCN(C)CC3)cc21 | 10 µM [rising, partial curve]
3 | CCOc1ccc(-c2nc(N)nc(C)c2-c2ccc(OC)c(OC)c2)c(O)c1 | 5.01 µM [falling, partial curve, poor fit]
4 | CCCN(C(=O)CSc1nnc(-c2ccoc2C)n1N)C1CCS(=O)(=O)C1 (configuration not stated) | 2.51 µM [falling, single point]
5 | COc1ccc2nc3c(c(-c4ccccc4)c2c1)CCC3 | 10 µM [rising, partial curve]
6 | Cn1cccc1Cc1nnc(SCC(=O)Nc2ccc3c(c2)OCCO3)n1-c1ccc(F)cc1 | 6.31 µM [falling, partial curve]
7 | c1ccc(Nc2cc(Nc3ccccc3)[nH]n2)cc1 | 12.6 µM [falling, single point]
8 | Cc1noc(C)c1C(=O)OCC(=O)c1c[nH]c2ccccc12 | 5.01 µM [falling, single point]
9 | COCCn1c(=O)c(-c2ccc(Cl)cc2)nc2cnc(Nc3ccccc3)nc21 | 0.794 µM [rising, full curve]
10 | OCCN(Cc1ccccc1)Cc1ccc(F)c(F)c1 | 0.00398 µM [falling, full curve, poor fit]
11 | COc1ccc(NC(=O)CSc2nc3ccccc3c(=O)n2-c2ccc3c(c2)OCO3)c(OC)c1 | 3.98 µM [rising, partial curve]
12 | CCOC(=O)C1=C(C)NC2=C(C(=O)CC(c3ccc(OC)c(OC)c3)C2)C1c1ccc(C)o1 (configuration not stated) | 6.31 µM [rising, partial curve]
13 | COc1ccc(OC)c(C2C3=C(CCCC3=O)Nc3nc4ccccc4n32)c1 (configuration not stated) | 0.0158 µM [falling, full curve, poor fit]
14 | FC(F)(F)c1ccccc1-c1nccc(-n2ccnc2)n1 | 10 µM [rising, single point]
15 | COc1ccc(OCc2nc(C#N)c(N3CCN(c4ccc(OC)cc4)CC3)o2)cc1 | 25.1 µM [falling, single point]
16 | Cn1c(NCc2ccccc2)cc(=O)n(C)c1=O | 25.1 µM [falling, single point]
17 | CCOC(=O)CN1C(=O)C(O)(c2c(C)[nH]c3ccccc23)c2ccccc21 (configuration not stated) | 10 µM [falling, partial curve]
18 | COc1ccc(NC(=O)Nc2ccc3nccnc3c2)cc1 | 0.0501 µM [falling, full curve, poor fit]
19 | Cc1cccc(CNc2ccnc(-c3ccc(C(=O)N(C)C)cc3)n2)c1 | 0.126 µM [rising, full curve]
20 | COc1cc2ncnc(Nc3cccc(Cl)c3)c2cc1OC | 25.1 µM [rising, partial curve] and 7.94 µM [rising, full curve, poor fit]
21 | COC(=O)c1ccccc1NC(=O)C1CCN(C(=O)c2cc(OC)c(OC)c(OC)c2)CC1 | 10 µM [rising, single point]
22 | O=c1cc(Nc2ccc3c(c2)OCCO3)[nH]c(=O)n1-c1ccc(Cl)cc1 | 0.398 µM [falling, full curve]
23 | O=C1c2oc3ccc(F)cc3c(=O)c2C(c2ccccc2)N1CC1CCCO1 (configuration not stated) | 25.1 µM [falling, single point]

Row | Structure (SMILES) | AC50
24 | Cc1noc(C)c1CSc1nc2[nH]ncc2c(=O)n1-c1ccccc1 | 10 µM [rising, partial curve]
25 | COc1ccc(-c2noc(N(C)CC(=O)Nc3cccc(C(F)(F)F)c3)n2)cc1 | 0.02 µM [falling, full curve]
26 | Nc1nc(N)c(N=Nc2ccc(C(=O)O)c(O)c2)c(N)n1 | 5.01 µM [falling, single point]
27 | COc1ccc(CNC(=O)c2cnn3c(C(F)F)cc(C)nc23)cc1OC | 10 µM [rising, partial curve]
28 | COc1ccc(-c2nc3cnc(N4CCOCC4)nc3n(C3CC3)c2=O)cc1 | 1 µM [rising, full curve]
29 | O=S1(=O)CCN=C2SC3=C(CCCC3)N21 | 3.98 µM [rising, single point]
30 | COc1cc(C(=O)Nc2cccc3ncccc23)cc(OC)c1OC | 10 µM [rising, single point]
31 | CCCc1nc2oc3c(NCC4CCCO4)ncnc3c2c2c1COC(C)(C)C2 (configuration not stated) | 1.58 µM [rising, full curve]
32 | CCOC(=O)C1=C(C)N=C(/N=C/N(C)C)SC1c1ccccc1 (configuration not stated) | 31.6 µM [falling, partial curve]
33 | O=C(c1ccccc1)c1ccc(N2CCOCC2)c(NC(=O)c2ccco2)c1 | 6.31 µM [rising, partial curve]
34 | CC(=O)NC(CC(C)C)C(=O)NC(=O)NCc1ccccc1 (configuration not stated) | 0.00794 µM [falling, full curve, poor fit]
35 | CCc1nc(N(CC)CC)c2oc3ccccc3c2n1 | 7.94 µM [rising, partial curve]
36 | COc1ccc(CCNc2oc(COc3ccccc3Cl)nc2C#N)cc1OC | 25.1 µM [falling, single point]
37 | O=c1c(-c2cccs2)nc2cnc(N3CCNCC3)nc2n1CCc1ccccc1 | 2 µM [rising, full curve]
38 | CCCCSc1nc2c(cnn2-c2ccc(F)cc2)c(=O)[nH]1 | 3.16 µM [rising, full curve]
39 | O=C(NC1CCCCC1)C(c1ccccc1)N1CCOCC1 (configuration not stated) | 0.631 µM [falling, single point]
40 | CCCCn1c(NC(C)CC)nc2c1c(=O)[nH]c(=O)n2C (configuration not stated) | 15.8 µM [rising, single point]
41 | CCOC(=O)C(C)n1cnc2c(nnn2-c2ccc(OC)cc2)c1=O (configuration not stated) | 5.01 µM [rising, single point]
42 | CC(=O)c1c(NC(=O)C(C)C)nc(C)nc1-c1ccccc1 | 0.398 µM [rising, full curve]
43 | Cc1ccc(-c2nn(C)c(=O)c3ccccc23)cc1S(=O)(=O)NCCO | 15.8 µM [rising, partial curve]
44 | C=C[C@@]1(C)CC(=O)[C@@]2(O)[C@@]3(C)[C@@H](O)CCC(C)(C)[C@@H]3[C@H](OC(=O)CCN(C)C)[C@H](OC(C)=O)[C@@]2(C)O1 | 0.0631 µM [rising, full curve]
45 | COc1ncnc2c1oc1nc(CC(C)C)c3c(c12)CCCC3 | 2.51 µM [rising, partial curve]
46 | COc1ccc(CCNc2oc(-c3ccco3)nc2C#N)cc1 | 10 µM [rising, partial curve]

Row | Structure (SMILES) | AC50
47 | COc1ncc2nc(-c3cc(F)cc(F)c3)c(=O)n(Cc3cccs3)c2n1 | 6.31 µM [rising, partial curve]
48 | CCCCOc1ccccc1C1CC(=O)NC2=C1C(=O)CCC2 (configuration not stated) | 3.98 µM [rising, full curve]
49 | CN(C)c1ccc(-c2nccc(NCCN3CCOCC3)n2)cc1 | 5.01 µM [rising, partial curve]
50 | CCOC(=O)c1sc(NC(=O)CSc2nnc(-c3ccc(OC)cc3)n2CCOC)nc1C | 10 µM [rising, single point]
51 | Cc1ccccc1Cc1c(C)nc2ncnn2c1C | 10 µM [rising, single point]
52 | COc1ccc(-c2noc(CCC(=O)NCc3cccnc3)n2)cc1OC | 1 µM [rising, full curve]
53 | CCCc1cc2c(=O)c(-c3ccccn3)coc2cc1OC | 12.6 µM [rising, partial curve]
54 | COc1ccc(OC)c(C2=NOC(C(=O)Nc3cccnc3)C2)c1 (configuration not stated) | 0.631 µM [falling, partial curve]
55 | Nc1ncnc2c1nc(Br)n2[C@H]1O[C@H]2COP(=O)(O)O[C@H]2[C@@H]1O | 0.316 µM [rising, full curve, poor fit]
56 | O=C(CSc1nnnn1-c1ccccc1)Nc1nsc(-c2ccccc2)n1 | 3.98 µM [rising, single point]
57 | CN1CCc2c(sc3c2C(=O)NC(c2ccccn2)N3)C1 (configuration not stated) | 12.6 µM [rising, partial curve]
58 | Cc1ccc(NC2c3ncccc3C(=O)N2C2CCCCC2)cc1C (configuration not stated) | 0.398 µM [rising, single point]
59 | COc1ccc(-n2c(=O)c(-c3cc(F)cc(F)c3)nc3cnc(N4CCNCC4)nc32)cc1 | 10 µM [rising, partial curve]
60 | CCOC(=O)c1cnc2c(cnn2CC)c1NN=C(C)C | 15.8 µM [rising, partial curve] and 398 nM [rising, full curve]
61 | CCn1c(SCC(=O)OCC(=O)N2c3ccccc3NC(=O)C2(C)C)nnc1-c1ccco1 | 3.98 µM [falling, partial curve]
62 | COc1cc(-c2c(C#N)c(N)nc3c2c(C)nn3-c2ccc(C)c(C)c2)cc(OC)c1OC | 1.58 µM [rising, full curve]
63 | COCCn1c(=O)c(-c2ccccc2)nc2cnc(N(C)C)nc21 | 10 µM [rising, partial curve]
64 | O=C1NCCCC2c3c(cc(Br)c(O)c3Br)OC12N1CCOCC1 (configuration not stated) | 1.58 µM [rising, full curve, poor fit]
65 | O=C(Nc1cccnc1)c1cnn2c(C(F)F)cc(C3CC3)nc12 | 6.31 µM [rising, partial curve]
66 | CN1CCN(c2ncc3nc(-c4cccc(C#N)c4)c(=O)n(C[C@H]4CCCO4)c3n2)CC1 | 20 µM [rising, partial curve]
67 | Cc1onc(-c2ccccc2)c1C(=O)n1cccn1 | 1.26 µM [falling, partial curve, poor fit]

Reprinted at random: 3 compounds from above.
Row | Structure (SMILES) | AC50
61 | CCn1c(SCC(=O)OCC(=O)N2c3ccccc3NC(=O)C2(C)C)nnc1-c1ccco1 | 3.98 µM [falling, partial curve]
50 | CCOC(=O)c1sc(NC(=O)CSc2nnc(-c3ccc(OC)cc3)n2CCOC)nc1C | 10 µM [rising, single point]
51 | Cc1ccccc1Cc1c(C)nc2ncnn2c1C | 10 µM [rising, single point]
